Reference: US20240042051A1, “MCL-1 INHIBITOR ANTIBODY-DRUG CONJUGATES AND METHODS OF USE” (Novartis AG, priority 2020, published 2024)
No constants are given. Whether binding was seen depends on the method and setting. Some entries that bind do so weakly or less than the wild type.

By UniProt entry, the sequences of proteins in these tests, tags left out. Where a name states a change or a piece, a line headed by the entry shows the natural chain unless it says otherwise. Chains listed by the source or under a name are the forms on record and can include a tag or linker.
hCD48EC:mouse-Ig construct #2250 (KKTGNE modified into KKDASG) (P09326, form named): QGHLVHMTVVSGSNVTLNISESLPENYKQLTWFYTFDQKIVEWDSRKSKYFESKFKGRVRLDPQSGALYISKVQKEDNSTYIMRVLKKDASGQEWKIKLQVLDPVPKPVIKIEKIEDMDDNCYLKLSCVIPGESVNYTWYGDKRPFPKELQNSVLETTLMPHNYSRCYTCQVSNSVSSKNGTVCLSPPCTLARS

Columns and labels:
[1] = biological target: hCD48EC:mouse-Ig construct #2250 (KKTGNE modified into KKDASG) (human) (UniProt P09326); test: ELISA with 1:10 diluted HEK293T supernatant of the mutated CD48-mouse IgG fusion, antibody at 500, 250 and 25 ng/ml
[2] = biological target: hCD48EC:mouse-Ig construct #2250 (KKTGNE modified into KKDASG) (human) (UniProt P09326); test: ELISA, HEK293T culture supernatant (1:10) with the CD48-mouse Ig construct, antibody at 25, 250 and 500 ng/mL, detection goat anti-mouse IgG (H+L) HRP, Mean OD450-570
[3] = biological target: Met-humanCD48 (aa29-130)-APP6-Avi-His (human); test: complex formation for crystallisation; structure solved at 2.38 Å

B1: humanized CD48A (antibody, V domains shown)
VH: QVQLVQSGSELKKPGASVKVSCKASGYTFTDFGMNWVRQAPGQGLEWMGWINTFTGEPSYGNVFKGRFVFSLDTSVSTAYLQISSLKAEDTAVYYCARRHGNGNVFDSWGQGTLVTVSS
VL: EIVLTQSPDFQSVTPKEKVTITCRASQSIGSNIHWYQQKPDQSPKLLIKYTSESISGVPSRFSGSGSGTDFTLTINSLEAEDAATYYCQQSNSWPLTFGGGTKVEIKR
**Q.** B1 was tested. Which binding [1] did it give?
**A.** binds

**Q.** What about the binding [2] of the same binder?
**A.** binds

B2: NY938 (antibody, human IgG1, kappa, V domains shown)
VH: QVQLVQSGAEVKKPGASVKVSCKASGYTFTEYTMHWVRQAPGQGLEWMGGINPDTGDTSYNQKFTGRATLTVDKSTSTAYMELSSLRSEDTAVYYCARAQFWTTPRFAYWGQGTLVTVSS
VL: DIQMTQSPSSLSASVGDRVTITCKASQDVGTAVAWYQQKPGKVPKLLIYWASTRHTGVPSRFSGSGSGTDFTLTISSLQPEDVATYYCQQYSTYPITFGQGTKLEIKR
**Q.** Which binding [3] does the source give for B2 here?
**A.** binds
